Reference: PubChem BioAssay AID2417 (National Center for Advancing Translational Sciences (NCATS), 2010)
Hit rate of the full screen: of about 140,000 compounds, about 4,300 (3.1%) were called active. The shares of active, inactive and inconclusive entries below differ from those in the screen.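 The calls were made as follows: active = readout at or below -70, meaning at least 70% loss of cells showing the perinucleolar compartment, a nuclear body marking cancer cells; inconclusive = readout between -30 and a set limit; inactive = the rest.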

assay: High Content Assay for Compounds that inhibit the Assembly of the Perinucleolar Compartment; settings: PC3M PTB-GFP, PNC prevalence imaging, 16 h; at 10 µM; hits give low values;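 also: plate controls were DMSO wells for no effect and camptothecin positive control wells for full effect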
Outline: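 Read-out is percentage of cells bearing a perinucleolar compartment, from automated 20x imaging of fixed, Hoechst-stained PC3M PTB-GFP cells. Cells were seeded 4 h, then exposed 16 h to compound (23 nl of library stock) in duplicate plates.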

Structure (SMILES)	activity change (PNC), negative = inhibition
Cc1cccc(C)c1OCCOCCN1CCN(C)CC1	inconclusive: -39%
O=C(c1ccc(CNc2c(N3CCCC3)c(=O)c2=O)cc1)N1CCc2ccccc2C1	inconclusive: -38.6%
O=C(/C=C/c1cccc([N+](=O)[O-])c1)NCCSCc1ccccc1Cl	inconclusive: -33.8%
CCOc1cc(C2C(C#N)=C(N)OC(C)=C2C(C)=O)c(Br)c(Br)c1OC(C)C (configuration not stated)	inconclusive: -33.7%
COc1ccc(CCNS(=O)(=O)c2cccs2)cc1	inactive: 32.3%
CCn1c(COc2ccccc2)nnc1SCC(=O)C(C)(C)C	active: -97.2%
CC(C)(C)c1ccc(C2(C)NC(=O)N(CC(=O)NCc3cccs3)C2=O)cc1 (configuration not stated)	inconclusive: -61.8%
Cc1cc(=O)oc(C)c1C(=O)OCC(=O)c1ccc(Br)cc1	active: -89.9%
COc1cccc(-c2cc(C(=O)O)no2)c1	inactive: -1.1%
COC(=O)CC1C(=O)NCCN1C(=O)Nc1ccc(Cl)cc1 (configuration not stated)	inconclusive: -35.1%
COc1cc(/C=N/NC(=O)C(=O)N2CCCC2)ccc1O	inconclusive: -76.4%
CCC(=O)N(C)CCc1cc2c(c(OC)c1/C=N/NC(=O)c1ccccc1O)OCO2	inconclusive: -71.8%
O=C(Nc1ccccc1)c1cc2ccccc2[nH]1	inconclusive: -63.4%
CC1CN(Cc2cc(=O)[nH]c(C(C)C)n2)CC(C)O1 (configuration not stated)	inconclusive: -53.1%
N#CCc1ccc(C(=O)c2ccccc2)s1	active: -81.9%
COC(=O)c1ccc(NC(=O)C2CCCCC2C(=O)O)cc1 (configuration not stated)	inconclusive: -40%
CN1CCN(C(=O)/C=C/c2ccc3c(c2)OCO3)CC1	inactive: 28.4%
CN(C)c1ccc(N/C(=N\S(=O)(=O)c2cccs2)c2ccccc2)cc1	inconclusive: -30.3%
CCCNC(=O)CS(=O)(=O)Cc1nc(-c2cccc(OC)c2)oc1C	inconclusive: -46.2%

Structure (SMILES)	activity change (PNC), negative = inhibition
Cn1cc(Cl)c(C(=O)NNC(=S)NC2CCCCC2)n1	active: -109%
Cc1cccc2sc(NC(=O)CN3C(=O)c4ccccc4C3=O)nc12	inconclusive: -35.1%
COc1ccc(/C=C2/SC(=O)N(CC(O)Cn3c4ccccc4c4ccccc43)C2=O)cc1 (configuration not stated)	inconclusive: -32.1%
COc1ccc(N2C(=O)[C@@H]3[C@H](C2=O)[C@H]2c4ccccc4C=CN2[C@@H]3C(=O)Nc2ccccc2)cc1	inactive: 22%
Cc1ccc(Cc2c(C)nc3nc(SCC(=O)NCc4ccco4)nn3c2C)cc1	inconclusive: -34.2%
COc1ccc(NC(=O)N2CCN(c3cccc(C(F)(F)F)c3)CC2)cc1	inconclusive: -50.8%
O=C(CCCSc1nc2ccccc2s1)NCc1ccc2c(c1)OCO2	inconclusive: -45.3%
Cc1ccc(NC(=O)CSc2nc3ccccc3c3nc(CCn4cncc4C)nn23)c(C)c1	inconclusive: -34.2%
Cc1onc(-c2ccccc2Cl)c1C(=O)Nc1ccc(-n2nncc2C(C)(C)C)cc1	inactive: 4.76%
CCN(Cc1ccccc1)S(=O)(=O)c1ccc(S(=O)(=O)N(Cc2cccc(OC)c2)CC2CCCO2)cc1 (configuration not stated)	inconclusive: -36.5%
Cc1cccc(NC(=S)NNC(=O)c2csc(C(C)C)c2)c1	inconclusive: -74.7%
Cc1nn(C)c(C)c1NC(=O)c1ccc(S(=O)(=O)N(C)C)cc1	inconclusive: -74.7%
Cn1c(=O)c2c(nc(CN3CCN(c4ccc(F)cc4)CC3)n2Cc2ccccc2F)n(C)c1=O	inconclusive: -63.4%
Cc1cc2nnc(SCC(=O)NCc3cccs3)n2c2ccccc12	inconclusive: -46.2%
COc1cccc(C2CN(c3ccc(F)cc3F)N=C2c2cccs2)c1OC (configuration not stated)	inconclusive: -44.5%
COc1cccc(OC)c1C(=O)N1CCN(c2ccccn2)CC1	inconclusive: -46.3%
O=[N+]([O-])c1cc(S(=O)(=O)N2CCCC2)ccc1O	inconclusive: -44.7%
COc1ccccc1Oc1ccc2c(c1)C(=O)N(c1ccc(O)cc1)C2=O	inconclusive: -30.3%
CC1CN(C(=O)c2cc(S(=O)(=O)N3CCCC3)c(Cl)cc2Cl)CC(C)O1 (configuration not stated)	inconclusive: -45.5%

Copied from the list.
activity change (PNC), negative = inhibition with `Cn1c(=O)c2c(nc(CN3CCN(c4ccc(F)cc4)CC3)n2Cc2ccccc2F)n(C)c1=O` reads inconclusive: -63.4%
activity change (PNC), negative = inhibition with `COc1cccc(OC)c1C(=O)N1CCN(c2ccccn2)CC1` reads inconclusive: -46.3%

Carrying on.

Structure (SMILES)	activity change (PNC), negative = inhibition
COc1ccc(CNC(=O)c2sc(=S)n(-c3ccc(OC)cc3)c2N)cc1	inconclusive: -37.4%
COC(=O)c1c(-n2cnnn2)sc(C)c1C	inconclusive: -39.9%
CCOC(=O)C1C(=O)CC(=O)CC1CC(C)SCC (configuration not stated)	inactive: -5.27%
Cc1cc2sc(C(=O)O)c(C)c2s1	inconclusive: -33.4%
CCOc1ccc(CC(C(N)=O)C(N)=O)cc1CN(C)C	inactive: 22.9%
COCCn1nnnc1CN1CCC(NC(=O)Nc2cccc(OC)c2)CC1	inconclusive: -50.6%
COc1ccc(NC(=O)c2cccc(N3C(=O)NC4CC3(C)Oc3ccccc34)c2)cc1 (configuration not stated)	inconclusive: -55.8%
O=C(CN1CCCC1)Nc1c2c(nc3ccccc13)N(Cc1ccccc1)CC2	inconclusive: -44.4%
Cn1c(SCc2cccc(F)c2)nnc1-c1ccccn1	inconclusive: -30.3%
CCCn1c2c(c(O)c(C(=O)NCc3ccccc3)c1=O)CCCC2	inactive: 60.9%
CC1(C)CC(=O)C2=C(C1)Oc1ncn(CCO)c(=N)c1C2c1ccccc1 (configuration not stated)	inconclusive: -38.2%
O=C(CNc1c(Br)cc(Br)cc1Br)NN=C1CCCCC1	inactive: -11.5%
CN(c1ccc(OCC(=O)N2CCCCC2)cc1)S(=O)(=O)c1cccs1	inactive: -9.04%
NC(=O)CN1C(=O)C2CCCCN2C(=O)c2ccccc21 (configuration not stated)	inconclusive: -46.2%
Cc1[nH]n(-c2ccc([N+](=O)[O-])cc2)c(=O)c1C=NCCN1CCN(C(=O)c2ccccc2)CC1	inactive: 2.58%
CCn1c(N2CCC(Cc3ccccc3)CC2)nc2c1c(=O)[nH]c(=O)n2C	inconclusive: -35.9%
CC(C)NCC(O)COc1ccc2c(c1)CCC2 (configuration not stated)	inconclusive: -54%
CC(C)n1c(O)c(N=Nc2ccccn2)c2ccccc21	inconclusive: -45.5%
CCCC1C2CN(C(C)C)CC=C2C(C#N)=C(N)C1(C#N)C#N (configuration not stated)	active: -92.3%
